Results from publication PMC6862315.
No constants are given. Whether binding was seen depends on the method and setting. Binding can be weak; no strength is given. Where a sequence is shown, tags or fusion partners need not be part of it.

Target: bHLH35, full length in the bait vector pGBKT7 (BD) (Phalaenopsis aphrodite)
Experiment: two-hybrid; Matchmaker GAL4 yeast two-hybrid; SPK1 as prey in pGADT7 (AD), bHLH35 as bait in pGBKT7 (BD); growth on medium lacking Leu, Trp and His with 3-amino-1,2,4 triazole and X-Gal

B1: Spike Activator 1 (SPK1), full length in the prey vector pGADT7 (AD) (protein, UniProt A0A5Q0QTC1 1-304)
chain: MALEAVVFHDLLSCNVKDMYSPWDIAGLVDEDKTLPFYDEWKASCSSLTGQGFQEPPDLGGATAISATAQKENKAPATCSESNGRKKRRRTKGLTNQEEAENQRMTHIAVERNRRKQMNEYLAVLRSLMPASYAQRGDQASIVGGAINYVKELQQIVQFLEVRKQLKHRGDNRVQDLKPLASFFSFPQYSLTDTAAAAAGGVDTVPANPSAVADIEVTIVESHASLKILCRRRPKQLLKLVVGLQSLRLSTLHLNATSFGAMVLFTFSLKVEEDCQLATVDEIATAVHQIVVRIHEEEGFYTSS
In the case of B1, the binding is reported as “binds”.
